# Data reported in US20250155433A1, “FLUORESCENT SENSORS FOR DETECTION OF SIDEROPHORES AND OTHER MOLECULES PRODUCED BY BACTERIAL PATHOGENS” (Kansas State University Research Foundation, priority 2021, published 2025).
# Experiments:
# [1] = system: E. coli Nissle 1917; assay: Siderophore concentrations in spent media, Nissle 1917; type: cell-based; conditions: for Concentration in spent bacterial media, Nissle: ferrated supernatant
# [2] = system: E. coli MG1655; assay: Siderophore concentrations in spent media, MG1655; type: cell-based; conditions: ferrated supernatant
Compound,Production by E. coli Nissle 1917 [1],"Concentration in spent bacterial media, Nissle ([1]; M9, 24 h)","Concentration in spent bacterial media, MG1655 ([2]; M9, 24 h)","Concentration in spent bacterial media, Nissle ([1]; MOPS, 24 h)","Concentration in spent bacterial media, MG1655 ([2]; MOPS, 24 h)"
"CC(=O)N(O)CCCC[C@H](NC(=O)CC(O)(CC(=O)N[C@@H](CCCCN(O)C(C)=O)C(=O)O)C(=O)O)C(=O)O [Abn, aerobactin]",0.2 mM,–,–,–,–
O=C(N[C@H]1COC(=O)[C@@H](NC(=O)c2cc([C@@H]3O[C@H](CO)[C@@H](O)[C@H](O)[C@H]3O)cc(O)c2[O-])COC(=O)[C@@H](NC(=O)c2cc([C@@H]3O[C@H](CO)[C@@H](O)[C@H](O)[C@H]3O)cc(O)c2[O-])COC1=O)c1cccc(O)c1[O-].[Fe+3] [FeGEnt],–,0.3 µM,1.6 µM,–,–
"O=C(N[C@H]1COC(=O)[C@@H](NC(=O)c2cccc([O-])c2[O-])COC(=O)[C@@H](NC(=O)c2cccc([O-])c2[O-])COC1=O)c1cccc([O-])c1[O-].[Fe+3] [FeEnt, ferric enterobactin]",–,0.04 ± 0.01 µM,3.2 ± 0.1 µM,4.6 ± .01 µM,32.5 ± 0.13 µM
"CC(=O)N([O-])CCCC[C@H](NC(=O)CC(O)(CC(=O)N[C@@H](CCCCN([O-])C(C)=O)C(=O)O)C(=O)[O-])C(=O)O.[Fe+3] [FeAbn, ferric aerobactin]",–,26.5 ± 0.9 µM,0 µM,180 ± 14 µM,0 µM
